Primary screen of a compound library

The chains behind the UniProt entries cited, without tags or fusion partners.
UniProt E9BF75, entry or part of it: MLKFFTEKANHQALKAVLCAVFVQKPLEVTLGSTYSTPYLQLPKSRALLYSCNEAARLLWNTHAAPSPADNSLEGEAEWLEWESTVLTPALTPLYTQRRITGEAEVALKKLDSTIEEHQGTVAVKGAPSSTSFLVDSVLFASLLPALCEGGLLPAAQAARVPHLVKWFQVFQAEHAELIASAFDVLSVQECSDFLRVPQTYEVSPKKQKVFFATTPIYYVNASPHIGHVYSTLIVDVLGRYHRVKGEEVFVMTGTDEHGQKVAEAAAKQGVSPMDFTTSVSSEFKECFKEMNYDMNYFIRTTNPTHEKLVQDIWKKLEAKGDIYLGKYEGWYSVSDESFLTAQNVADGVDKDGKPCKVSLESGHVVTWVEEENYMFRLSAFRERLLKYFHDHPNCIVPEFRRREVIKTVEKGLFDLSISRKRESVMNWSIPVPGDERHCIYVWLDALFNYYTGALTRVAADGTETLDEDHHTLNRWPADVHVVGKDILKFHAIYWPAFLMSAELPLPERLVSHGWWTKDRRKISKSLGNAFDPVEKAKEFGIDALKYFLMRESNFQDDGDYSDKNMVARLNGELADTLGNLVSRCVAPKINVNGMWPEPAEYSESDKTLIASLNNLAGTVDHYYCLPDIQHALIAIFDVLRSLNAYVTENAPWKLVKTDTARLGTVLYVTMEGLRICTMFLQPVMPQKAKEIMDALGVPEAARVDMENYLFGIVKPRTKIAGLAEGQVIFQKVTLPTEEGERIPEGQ

All values are in %.
The record does not define 0% and 100%; most values in the screen are far below 50% and negative numbers occur (in some assays of this library far below -100).
Compounds were drawn at random from those tested, without regard to their results.
A dash means the value is not listed here; it may have been measured.

A: 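Assay on Mycobacterium tuberculosis, filed only as a heat shock assay from Cornell; the read-out is not stated. The concentration is filed as 10 mM, unlikely as a test dose, so the dose is not known. Higher reads as stronger inhibition (inferred: compounds with an IC50 in retests scored well above the rest). Size under these conditions: about 69,000 compounds, about 930 of them at 50% or above in at least one test.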
B: 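Methionyl-tRNA synthetase (putative), Leishmania donovani (UniProt E9BF75). Primary screen of methionyl-tRNA synthetase; the read-out is not stated. The test concentration is not given. Values are per cent inhibition. Size under these conditions: about 68,000 compounds, about 24 of them at 50% or above in at least one test.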
C: 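Whole-cell assay for inhibitors of Mycobacterium tuberculosis growth, labelled Cornell in the record; the read-out is not stated. The concentration is filed as 10 mM, unlikely as a test dose, so the dose is not known. The record gives no direction; compounds strong in two other growth screens of this library score well above the rest, so higher reads as stronger inhibition. About 53,000 compounds were tested under these conditions; 1.7% (about 900) showed 50% or more at least once.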

structure,A,B,C
O=C(CC1CCc2ccccc21)N1CCC(C(=O)O)(n2ccnc2)CC1 (stereo not given),-15.22%,3.753%,-2.815%
O=C(O)C(F)(F)F.[H][C@]12C[C@H](C(=O)NC)N(C)[C@@]1([H])CN(S(=O)(=O)c1ccc(F)cc1)C2,-29%,-,-4.829%
Cc1ccccc1CN1CCC(c2nn(CCN)c3nccnc23)C1 (stereo not given),-17.46%,22.65%,-17.85%
COc1ccc(CS(=O)(=O)CC(=O)NCc2ccccc2F)cc1F,12.65%,4.93%,13.54%
COc1cc(CN(C)C(=O)NC2CC2)ccc1SC,-8.845%,-,-
Cc1nc2[nH]cc(C(=O)N3CCCCC3c3ccc(F)cc3)c(=O)n2n1 (stereo not given),-9.148%,4.469%,-14.43%
CCN1CCN2CCCN(S(=O)(=O)c3cccc(F)c3)C2C1=O (stereo not given),-3.546%,12.57%,23.96%
Cc1ncc2c(n1)CCCC2NC(=O)c1ccc(Cn2cccn2)cc1 (stereo not given),72.35%,17.2%,-3.537%
CCc1noc(CN(CC)C(=O)CC2C(=O)NCCN2CC(C)(C)C)n1 (stereo not given),-21.99%,1.25%,-
CC(C)c1noc(CN2CCN(C(=O)c3cc(Cl)ccc3F)CC2)n1,3.624%,17.78%,34.44%
O=C1COC2(CCN(Cc3ccccn3)CC2)CN1CC1CC1,-4.742%,12.75%,13.8%
[H][C@@]12OCCN(C(=O)c3nn(C)c4ccccc34)[C@@]1([H])CC[C@@H]2OCC,15.53%,-,15.97%
c1ccc(CN2CCC(NCCSc3cnn[nH]3)CC2)cc1,-0.5285%,8.824%,5.08%
CCC(C)(C)NC(=O)C[S+]([O-])Cc1csc(C2CCCC2)n1 (stereo not given),-11.6%,6.267%,-15.28%
CS(=O)(=O)CCC(=O)NC(Cc1ccccc1)C1CC1 (stereo not given),-0.7695%,10.51%,-
CN(C)C[C@H]1OC[C@@H]2CCN(C(=O)c3cccn3C)C[C@@H]21,-,16.73%,-
CCN(CCOc1ccc(F)cc1)C(=O)c1ccncc1Cl,-27.19%,-,-
Cc1nc(C(=O)N2CCN(S(C)(=O)=O)CC2)c(-c2cccc(F)c2)s1,-12.76%,4.665%,1.988%
CCCc1cc(=O)[nH]c(-c2ccccc2CN(C)CCC(C)C)n1,-7.876%,1.875%,-
Cn1nc(C(=O)NN2CCOCC2)c(Cl)c1C(F)(F)F,12.68%,11.61%,-6.93%
O=C1CCCC2(CCN(C(=O)c3ccccn3)CC2)N1,-,5%,-
Cc1noc(C)c1CN1CCc2ncnc(-c3ccccc3)c2CC1,-,9.302%,-
O=C(O)C(F)(F)F.O=C(O)C(F)(F)F.O=C(O)C(F)(F)F.[H][C@@]12CN(Cc3ccco3)C[C@]1([H])[C@H](OC)CCN2Cc1ccccn1,-15.24%,-,-14.11%
Cc1ccc([C@@H]2CN(C(=O)c3cccnn3)C[C@H]2NC(=O)C2CC2)cc1,-1.225%,14.81%,-52.05%
COCc1ccc(C(=O)N2CC[C@@](O)(COC)C(C)(C)C2)o1,-0.3568%,13.71%,6.677%
[H][C@]12CCN(Cc3ccco3)[C@@]1([H])CC[C@H](COCc1ccccn1)O2,-24.82%,-,15.14%
CO[C@@H]1CCC[C@@H](N(C)C(=O)c2cc(F)ccc2F)[C@H]1O,-0.04497%,14.17%,-15.43%
O=C(O)C(F)(F)F.O=C(O)C(F)(F)F.[H][C@@]12CCN(Cc3ccccn3)[C@]1([H])CC[C@H](COC)O2,-12.12%,-,-7.358%
CCc1csc(CNc2nc3c(s2)c(C)nn3C)n1,2.853%,-0.3436%,-15.98%
COc1cccc(-c2cc(NCC(=O)O)nc3[nH]ccc23)n1,-13.58%,2.346%,-9.673%
CC(C)c1nccn1CCCNC(=O)c1ccc(-c2cnn(C)c2)nc1,-13%,-,-
COCc1nn(Cc2ccc(Cl)s2)c(=O)o1,11.86%,5.573%,-31.25%
COCCOCCNC(=O)c1cccc(Cn2nc(C)cc2C)c1,2.514%,7.082%,-25.58%
O=C1NCC2(CCCN(C(=O)c3csc(-c4cccs4)n3)C2)O1 (stereo not given),13.48%,16.32%,35.93%
CCn1cc(CN2CCN(C)C3(CCC(=O)N(CC4CC4)CC3)C2)cn1 (stereo not given),-14.33%,14.89%,2.25%
CNC(=O)NC(=O)C(C)N1CCC(c2c[nH]c3ccc(OC)cc23)CC1 (stereo not given),-5.314%,11.73%,2.702%
COc1cc(-c2cccc3c2OC(CN)C3)cc(OC)c1OC (stereo not given),25.04%,18.12%,-
[H][C@@]12CCN(Cc3ccco3)CC[C@]1([H])[C@H](COC)CN(C)C2=O,-4.613%,-,23.98%
Cc1nc(-c2ccc(Cl)s2)sc1C(=O)NC(C)(C)C(N)=O,16.07%,5.397%,-
Cc1nn(-c2ncnc3[nH]cnc23)c2c1C(C(C)(C)C)CC(=O)N2 (stereo not given),12.91%,19.45%,41.66%
COc1ccc(CNC(Cc2ccsc2)c2ccc(C)cn2)cc1OC (stereo not given),-,14.17%,-
CN(C)CCN1CC2(CCCN(c3ccc(Cl)cn3)C2)CCC1=O (stereo not given),-27.3%,9.524%,-3.741%
O=C(O)C(F)(F)F.[H][C@@]12CCCO[C@]1([H])[C@@H](OCC1CCCC1)CN2c1nnc(C)s1,-11.62%,-,21.95%
Cc1ccc(CNC(=O)NC2CCC(O)CC2)c(N2CCCC2)c1 (stereo not given),-7.23%,11.02%,34.37%
C[C@@H]1CN(Cc2c[nH]c(CC3CCCC3)n2)CC[C@]1(C)O,-1.066%,18.79%,20.37%
O=C(O)C(F)(F)F.O=C(O)C(F)(F)F.O=C(O)C(F)(F)F.O=C(O)C(F)(F)F.[H][C@@]12CN(Cc3ccncc3)C[C@]1([H])[C@H](OC)CCN2Cc1cccc(C)n1,-61.97%,-,0.03284%
Cn1c2ncccc2c(=O)n1CC(=O)NCCc1c(F)cccc1F,-7.039%,20.25%,-21.02%
CC(CNC(=O)NCc1ccoc1)N1CCc2sccc2C1 (stereo not given),8.235%,0%,-
CCOC(=O)CCNC(=O)N1CCOC(Cc2cccc(OC)c2)C1 (stereo not given),8.237%,3.484%,-2.134%

For reference, 4 entries once more:

{"structure": "[H][C@]12CCN(Cc3ccco3)[C@@]1([H])CC[C@H](COCc1ccccn1)O2", "A": -24.82, "C": 15.14}
{"structure": "CC(C)c1nccn1CCCNC(=O)c1ccc(-c2cnn(C)c2)nc1", "A": -13}
{"structure": "Cn1c2ncccc2c(=O)n1CC(=O)NCCc1c(F)cccc1F", "A": -7.039, "B": 20.25, "C": -21.02}
{"structure": "CCc1noc(CN(CC)C(=O)CC2C(=O)NCCN2CC(C)(C)C)n1", "stereo": "stereo not given", "A": -21.99, "B": 1.25}

Data taken from ChEMBL document CHEMBL3988442, “University of Dundee, Small-Polar-MMV Screening Library” (2021).